These are yes or no findings as the source states them, for the method shown. Binding seen in cells or lysates may run through a third protein.
Target: methyltransferase-like 3 (METTL3) (human (endogenous in MHCC97H and HCCLM3)) (UniProt Q86U44)
Test: co-IP; Co-IP of STAT3 and METTL3 (Fig. S2D, E); cells and precipitated protein not told in the text shown

Sequences of proteins named here, by UniProt entry; tags and fusion partners are left off.
UniProt Q86U44: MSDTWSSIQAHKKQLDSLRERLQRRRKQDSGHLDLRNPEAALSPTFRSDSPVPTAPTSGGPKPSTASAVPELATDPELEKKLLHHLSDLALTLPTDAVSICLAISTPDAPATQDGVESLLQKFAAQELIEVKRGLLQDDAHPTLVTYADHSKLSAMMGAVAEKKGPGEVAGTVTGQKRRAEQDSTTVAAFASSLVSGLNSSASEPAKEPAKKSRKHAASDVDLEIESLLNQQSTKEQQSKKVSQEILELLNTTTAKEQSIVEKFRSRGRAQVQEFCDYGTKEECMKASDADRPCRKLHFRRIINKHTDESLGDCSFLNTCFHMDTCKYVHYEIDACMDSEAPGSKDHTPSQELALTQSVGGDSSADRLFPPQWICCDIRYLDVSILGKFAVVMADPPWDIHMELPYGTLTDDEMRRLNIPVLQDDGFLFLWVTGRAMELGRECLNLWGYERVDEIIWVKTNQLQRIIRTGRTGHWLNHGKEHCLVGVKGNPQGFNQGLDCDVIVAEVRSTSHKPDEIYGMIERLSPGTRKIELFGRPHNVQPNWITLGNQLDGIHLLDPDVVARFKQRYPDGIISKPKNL
UniProt P40763: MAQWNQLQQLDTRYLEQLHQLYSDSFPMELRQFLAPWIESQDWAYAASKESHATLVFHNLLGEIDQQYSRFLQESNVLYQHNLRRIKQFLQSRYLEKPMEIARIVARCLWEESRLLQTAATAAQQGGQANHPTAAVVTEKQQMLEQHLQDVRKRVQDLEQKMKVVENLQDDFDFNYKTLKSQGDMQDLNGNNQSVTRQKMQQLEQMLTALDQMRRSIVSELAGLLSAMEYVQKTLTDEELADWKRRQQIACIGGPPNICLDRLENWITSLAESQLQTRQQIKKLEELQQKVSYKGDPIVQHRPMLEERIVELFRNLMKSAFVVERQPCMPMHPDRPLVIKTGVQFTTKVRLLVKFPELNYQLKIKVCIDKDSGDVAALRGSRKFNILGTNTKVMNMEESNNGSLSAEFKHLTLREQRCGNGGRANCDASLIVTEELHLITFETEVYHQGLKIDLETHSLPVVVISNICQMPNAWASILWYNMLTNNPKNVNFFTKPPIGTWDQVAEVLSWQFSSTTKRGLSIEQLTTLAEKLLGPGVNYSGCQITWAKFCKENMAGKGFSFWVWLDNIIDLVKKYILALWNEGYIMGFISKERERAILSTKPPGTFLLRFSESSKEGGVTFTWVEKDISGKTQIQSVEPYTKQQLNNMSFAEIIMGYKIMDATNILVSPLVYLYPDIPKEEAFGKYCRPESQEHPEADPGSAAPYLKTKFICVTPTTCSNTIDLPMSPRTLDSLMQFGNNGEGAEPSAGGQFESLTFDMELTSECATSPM

binding: no binding
Substance: signal transducer and activator of transcription 3 (STAT3) (from UniProt P40763 1-770)
